Experimental findings from patent US20150005237A1, “PEPTIDIC INHIBITOR OF SIGNAL TRANSMISSION FROM G-ALPHA-S TO G-ALPHA-I-COUPLED RECEPTOR CASCADES” (UNIVERSITÄT INNSBRUCK, priority 2011, published 2015) are described below.

Amino acid sequences for entries named in this document (tags omitted).
UniProt P08753: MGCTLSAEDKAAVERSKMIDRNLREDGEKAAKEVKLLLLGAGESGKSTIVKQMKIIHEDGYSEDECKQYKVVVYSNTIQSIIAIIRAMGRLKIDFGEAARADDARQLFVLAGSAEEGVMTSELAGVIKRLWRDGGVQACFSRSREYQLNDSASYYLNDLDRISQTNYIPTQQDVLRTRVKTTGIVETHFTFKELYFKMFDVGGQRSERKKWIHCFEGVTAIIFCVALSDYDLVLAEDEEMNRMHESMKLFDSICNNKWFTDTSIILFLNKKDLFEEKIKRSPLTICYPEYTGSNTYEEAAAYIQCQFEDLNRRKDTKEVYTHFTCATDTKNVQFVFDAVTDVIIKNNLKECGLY

No constants are given. Whether binding was seen depends on the method and setting. Some results given as binding are weak or reduced against the parent protein; the word gives no strength.

The target of assay [1] is GST-Gαi3 (fusion of full-length Gαi3 and gluthatione S-transferase) (rat) (UniProt P08753). As to the kind of experiment: dot blot of spotted peptides overlaid with recombinant GST-Gαi3.
For assay [2] the target is unchanged. As to the kind of experiment: dot blot of spotted peptides overlaid with recombinant GST-Gαi3, densitometry.

As to QGDSADSFFIVESGE [spotted peptide containing the Reggai sequence of RIIβ (SEQ ID No. 7)], in assay [1], the binding entry was “binds”. On to QGASADSFFIVESGE [spotted peptide, mutant functional variant of the Reggai sequence (SEQ ID No. 8)], for which the binding result in assay [1] and in assay [2] was “binds” throughout.
